Experimental data taken from PubChem BioAssay AID1794845 (National Center for Advancing Translational Sciences (NCATS), 2023).
Out of some 6,900 compounds screened, fewer than 10 were called active. Calls come from the whole dose curve; as a rule, active = well fitted curve in the direction sought with a large enough effect; inconclusive = small, poorly fitted or top-dose-only effect, or another doubt; inactive = no such curve, though single readings can be large or run the other way. Some of the results follow.

Amino acid sequences for entries named in this document (tags omitted). A change or cut given only in a name is not applied to a line headed by its entry.
UniProt C7C422: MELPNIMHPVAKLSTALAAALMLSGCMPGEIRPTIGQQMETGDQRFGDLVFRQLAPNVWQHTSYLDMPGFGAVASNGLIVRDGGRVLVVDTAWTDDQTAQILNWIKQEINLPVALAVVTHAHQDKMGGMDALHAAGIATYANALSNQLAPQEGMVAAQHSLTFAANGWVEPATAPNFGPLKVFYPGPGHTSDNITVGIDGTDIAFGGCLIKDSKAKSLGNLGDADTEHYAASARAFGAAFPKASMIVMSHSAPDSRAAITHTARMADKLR

Target: Metallo-beta-lactamase type 2 (Klebsiella pneumoniae) (UniProt C7C422)
Assay: qHTS to identify inhibitors of the New Delhi Metallo-beta-lactamase (NDM): primary screen against the NCATS Gemini Collection; note: % of control where 0% means no effect
Settings: NDM-1 enzyme, meropenem hydrolysis, absorbance 300 nm; at 38.4 µM (top of the series) unless noted
Method in brief: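 Meropenem hydrolysis (50 uM final) by 2 nM NDM-1 read as 300 nm absorbance after 30 min, following >30 min compound–enzyme preincubation in HEPES pH 7.0 with 1 uM ZnSO4 and 0.01% Tween20.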

Activity % (negative = inhibition), inactive:
COc1cc(F)ccc1-c1nc(-c2c(C)noc2C)cc2cc(C)oc12 27.1% [at 57.5 µM]
COC(=O)C[C@H]1CN(C(=O)OC(C)(C)C)CCN1 4.12% [at 57.5 µM]
CC(=O)N[C@H]1C[C@@H](c2cc(C)c(C)cc2C)O[C@@H](C(C)(C)C)C1 -0.667%
CN1CCC(C(=O)N2CCC(n3c(=O)[nH]c4ccccc43)CC2)CC1 -0.148%
O=C(Cn1ncc2ccccc2c1=O)N1CCCCC1CCn1cccn1 (stereo not drawn) 3.55%
COCCn1c2c(c(=O)n1-c1ccccc1)CCN(Cc1cccc(C#N)c1)C2 1.1% [at 57.5 µM]
COCC1CN(C2CCC2)CC12CCN(S(=O)(=O)c1cnc[nH]1)CC2 (stereo not drawn) -13.9%
Cc1ccc(S(=O)(=O)N2CCc3nc4cc[nH]n4c(=O)c3C2)cc1C 1.93%
CCOC(=O)C1CCN(C(=O)c2ccc3oc(-c4cccnc4)nc3c2)CC1 26%
CCCN1CC2(CCN(Cc3nc(CCOC)no3)CC2)CC1C(=O)O (stereo not drawn) 11.1%
O=C(Nc1cc(-c2ccncc2)nn1-c1ccccc1)c1ccc(Cl)cc1 14.3%
Nc1nc(CCC(=O)N[C@@H]2[C@@H](Cc3ccccc3)[C@H]3OCC[C@@H]23)cs1 -5.81%
CN1CCN(C(=O)N2CCC3(CCCN(C4CCCC4)C3=O)C2)CC1 (stereo not drawn) 2.27%
C[C@@H]1CN(C(=O)c2cccc(N3CCNC3=O)c2)C[C@@]1(O)C1CC1 16.8%
Cc1noc(C)c1CC(=O)N1CCCn2ccnc2C1c1ccccc1 (stereo not drawn) 24.4%
COC[C@@H]1CN(Cc2cnn(C(C)C)c2)C[C@H]1C(=O)NC1CC1 -1.59%
COc1ccc(-c2nc3c(c(=O)[nH]2)CCN(C(=O)Nc2ccccc2Cl)C3)cc1 4.22%
O=C1NCCOCCCN(S(=O)(=O)c2cccs2)[C@H]2CCCC[C@@H]12 0.676%
COCC(=O)NC[C@H]1CCN(Cc2ccccn2)C[C@H]1N(C)C 7.78%
CCCNC(=O)N1CCCC(c2nc(CCOc3ccc(F)cc3)no2)C1 (stereo not drawn) 13.6%
CC(=O)N1CC2(CCCN2Cc2cccc(C(N)=O)c2)Cc2ccccc21 (stereo not drawn) 15.2%
COc1ccc(CNC(=O)C[C@@H]2C[C@H]3O[C@H](CNC4CCCC4)[C@@H](O)[C@H]3O2)cc1 -1.67% [at 57.5 µM]
COC(=O)CNC(=O)NCCc1ncc(C)n1C1CCCC1 -2.91%
COc1ccccc1N1CCN(CC[C@H]2CN(C(=O)NC3CCCCC3)CC[C@H]2CC(=O)O)CC1 -2.13%
CN1CC(=O)N(C2CCNCC2)Cc2c(NCCCO)ncnc21 4.04%
CCOc1ccccc1CN1CCN(Cc2nccn2CC)CC1CCO (stereo not drawn) -1.34%
CC1=C[C@@H](CNC(=O)C(C)(C)C)[C@H](C(C)C)C[C@H]1Cc1nnc(-c2ccncc2)o1 -12.9% [at 57.5 µM]
O=C(C1CN(C2CCCC2)C(=O)N1)N1CCN(c2ncccn2)CC1 (stereo not drawn) 6.52%
CCOC(=O)C1CCN(C(=O)c2ccc3nccn3c2)CC1 16.6% [at 57.5 µM]
CC(=O)N(C1CC1)C1CCOC2(CCN(C(=O)Cn3c(=O)oc4ccccc43)CC2)C1 (stereo not drawn) 11.5%
COCCNC(=O)[C@H]1C[C@H](Oc2ccccc2)CN1Cc1ccncc1 0.46%
CCn1c(CN(C)C)nnc1C1CCN(C(=O)Cn2nc(C)cc2N)CC1 0.734%
OC1(c2csc(CN3CCOCC3)n2)CCN(Cc2ccc(F)cc2)CC1 9.97% [at 57.5 µM]
COCCNC(=O)C1COC2(CCN(C(=O)C3CC3)CC2)N1C(=O)c1cccc(OC)c1 (stereo not drawn) -3.04%
Cn1cc(CN2C[C@@H]3C[C@H](C2)c2ccc(NS(=O)(=O)c4cccc(F)c4)c(=O)n2C3)c2ccccc21 83.7%
COc1cccc(-c2ccccc2NC(=O)C2CCN(CC=C(C)C)CC2)c1 0.918%
CN(C)[C@@H]1CN(Cc2ccc(C#N)cc2)C[C@H]1CO -0.958%
COCc1ccc(C(=O)N2CCCC(CCc3cccc(OC)c3)C2)o1 (stereo not drawn) 2%
COCC1(C(=O)N2CCN(C)C3(CCNC(=O)CC3)C2)CCC1 (stereo not drawn) -0.987%
O=C(NCCCc1ccccc1)c1nc2sccn2c1-c1cccc(C(F)(F)F)c1 9.83% [at 57.5 µM]
Cn1c(CCNC(=O)CC2CCOCC2)nc2ccccc21 9.59%
CCn1ccc(C(=O)N2C[C@@H]3CCCN4CCC[C@@H]([C@H]34)[C@H]2CCCC(=O)NCC2CC2)n1 -0.472%
CCCc1nc(CC)n2cc[nH]c(=O)c12 1.13%
COCCn1c(C)nnc1-c1cc(-c2ccc(OC)c(OC)c2)ccn1 22.3% [at 57.5 µM]
COCCn1c(C)cnc1CCNS(=O)(=O)Cc1ccccc1F -0.38%
O=C(O)CCC(=O)N1CC[C@@H]2[C@H]1C(=O)N(c1ccc(F)c(Cl)c1)C(=O)N2Cc1ccccc1 -0.502%
Cc1ccc(C2(C(=O)N3C[C@@H](CN4CCCCC4)[C@@H](CO)C3)CC2)cc1 1.63%
COC(=O)[C@@H]1Cc2nc[nH]c2CN1C1CCOCC1 25.3% [at 77.1 µM]
c1cc(-c2n[nH]c(CC3CCNC3)n2)ccn1 (stereo not drawn) 24.7%
Cc1noc(C)c1S(=O)(=O)N1C[C@@H](C(=O)O)[C@H](c2ccccn2)C1 11.2%
CC(=O)Nc1ccc(C(=O)N2CCC3(CC2)CN(C)CCN3C)c(C)c1 31.2%
COc1cccc(CCC(=O)N2CCC3(CC2)NC(=O)N(c2cccc(F)c2)N3)c1 -0.48%
c1ccc(C2(c3ccccc3)CCCN(Cc3cscn3)C2)cc1 -5.05%
COc1ccc(CN2CCn3c(nnc3C3CCCNC3)C2)cc1 (stereo not drawn) 6.75% [at 57.5 µM]
COC[C@H]1C[C@@H](NC(=O)c2c(-c3ccccc3)noc2C)[C@H](O)[C@@H]1O -6.53% [at 57.5 µM]
Nc1nccc(N2CCC3(CCC(=O)N(CC4CCCO4)C3)CC2)n1 (stereo not drawn) 0.24%
COc1ccc(NC(=O)N2CCOC(c3ccc(Cl)cc3)C2)c(C)c1 (stereo not drawn) -1.55%
CC(C)c1ccc(CN2CC(CNC(=O)C3CCOCC3)C3(C2)CN(c2ccccc2)C3)cc1 (stereo not drawn) -12.6%
COc1cccc(Nc2cn(C)c(=O)n3cc(COc4ccccc4)nc23)c1 4.67% [at 57.5 µM]
C=CCNC(=O)c1cnn2cc(C)ccc12 7.7% [at 77.1 µM]
CC(C)Cc1cc(C(=O)N2CCOC(C(F)(F)F)C2)n[nH]1 (stereo not drawn) -9.65%
CCc1nc2cc(N3CCCC(C(=O)O)C3)cnc2nc1CC (stereo not drawn) 3.54%
CCc1cc(C(=O)N2CCC3(CCC(=O)N(CCc4cnc[nH]4)C3)CC2)cs1 -0.143%
N#Cc1cccc(C(=O)N2CCNc3cnc(Nc4cccc(F)c4)nc3C2)c1 38.6% [at 57.5 µM]
CC1(C)C[C@H](NC2CCC2)[C@@]2(CCC(=O)NCc3cccnc3)CC[C@](C)(O)C[C@@H]12 -8.53% [at 57.5 µM]
CCNC(=O)[C@@H]1C[C@H](NC(C)=O)CN1C1CCN(c2ccc(C)cc2)CC1 7.81%
COc1cccc(-c2ccc(C(=O)NCCNC(=O)Cc3ccc(F)cc3)cc2)c1 3.44%
COc1ccc(C(=O)N2CCN(C(=O)N3CC4CC(C3)[C@H]3CCCC(=O)N3C4)CC2)c(OC)n1 (stereo partly drawn) -5.84%
CCN1CCN(C(=O)c2cc(-c3ccccc3)cn2C)CC1 13.2%
COCc1cccc(-c2n[nH]c3c2CC(=O)N(CCc2ccncc2)C3)c1 49% [at 57.5 µM]
Cc1noc(C)c1S(=O)(=O)NCCC1CN(c2cnn(C)c(=O)c2)CCO1 (stereo not drawn) 4.26%
CN1C(=O)CO[C@H]2CN(Cc3c[nH]c4ccccc34)C[C@H]21 10.3% [at 77.1 µM]
O=C(COc1ccccc1)N1CCC(c2n[nH]c(=O)n2Cc2ccc(F)cc2)CC1 20.7%
COCC1CN(C)CC12CCN(C(=O)c1cc3ccccc3[nH]1)CC2 (stereo not drawn) 5.73%
COCC[C@]1(O)CCN(C(=O)CCCc2ccccc2)C[C@H]1C 1.01%
CCc1nc2c(=O)n(CC(=O)NCc3ccco3)nc(C)c2s1 5.18%
COc1cccc(-c2ccc(CN3CCCC(N[S+](=O)([O-])c4ccc(C)cc4)C3)cc2)c1 (stereo not drawn) 15%
CCN(Cc1ccncc1)C(=O)CC1C(=O)NCCN1CCc1ccccc1 (stereo not drawn) 3.44%
O=C(COc1ccccc1)N1C[C@@H]2C[C@H](C1)c1c(NS(=O)(=O)c3ccccc3)ccc(=O)n1C2 2.03%
COc1ccccc1OCCNC(=O)[C@]12CCCC[C@@H]1N(C)C(=O)CC2 -2.39%
CC(C)N1C[C@@H](COCc2ccccc2)[C@H](c2ccccc2)[S+]1(=O)[O-] 2.62%
COc1ccc(C2(C(=O)N3C[C@@H](CO)[C@H](c4ccccn4)C3)CC2)cc1 4.47%
COCCN(CCOC)C(=O)[C@@H](C)C1CC[C@@]2(C)CC[C@H](NC(=O)c3cncnc3)[C@@H](C)[C@@H]2[C@H]1O (stereo partly drawn) -5.02%

Molecules above containing a cyano group (3):
Activity % (negative = inhibition), inactive:
COCCn1c2c(c(=O)n1-c1ccccc1)CCN(Cc1cccc(C#N)c1)C2 1.1% [at 57.5 µM]
CN(C)[C@@H]1CN(Cc2ccc(C#N)cc2)C[C@H]1CO -0.958%
N#Cc1cccc(C(=O)N2CCNc3cnc(Nc4cccc(F)c4)nc3C2)c1 38.6% [at 57.5 µM]

3 compounds drawn at random from the list so far, as already listed:
Activity % (negative = inhibition), inactive:
COCc1cccc(-c2n[nH]c3c2CC(=O)N(CCc2ccncc2)C3)c1 49% [at 57.5 µM]
COCC1(C(=O)N2CCN(C)C3(CCNC(=O)CC3)C2)CCC1 (stereo not drawn) -0.987%
CN(C)[C@@H]1CN(Cc2ccc(C#N)cc2)C[C@H]1CO -0.958%
